The values below come from patent publication US20100069462A1 (JICHI MEDICAL UNIVERSITY, published 2010).

By UniProt entry, the sequences of proteins in these tests, tags left out. Where a name states a change or a piece, a line headed by the entry shows the natural chain unless it says otherwise.
UniProt O00165: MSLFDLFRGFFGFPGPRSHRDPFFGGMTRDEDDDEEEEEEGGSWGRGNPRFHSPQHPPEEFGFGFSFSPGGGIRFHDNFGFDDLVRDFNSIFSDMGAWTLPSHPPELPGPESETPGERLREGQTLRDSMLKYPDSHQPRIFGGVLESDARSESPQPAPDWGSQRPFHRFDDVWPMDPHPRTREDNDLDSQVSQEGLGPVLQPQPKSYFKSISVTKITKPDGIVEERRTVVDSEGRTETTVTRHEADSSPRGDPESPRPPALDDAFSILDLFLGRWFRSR
UniProt O35129: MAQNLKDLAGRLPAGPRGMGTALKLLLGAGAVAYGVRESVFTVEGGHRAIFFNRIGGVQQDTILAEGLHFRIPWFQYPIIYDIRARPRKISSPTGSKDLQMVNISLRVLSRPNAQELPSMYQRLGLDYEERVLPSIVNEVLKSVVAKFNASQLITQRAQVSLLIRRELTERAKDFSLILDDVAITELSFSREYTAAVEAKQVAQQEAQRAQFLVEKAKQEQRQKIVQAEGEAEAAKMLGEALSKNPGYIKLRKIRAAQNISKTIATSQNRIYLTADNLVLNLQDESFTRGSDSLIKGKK

In experiment [1] the target is Hax-1-FLAG protein (FLAG tag fused to the C-terminus of the Hax-1 protein) (human) (UniProt O00165). As to the kind of experiment: in vitro binding experiment (summary of Example 4, GST pull-down).
Experiment [2] has the same target. As to the kind of experiment: in vitro GST pull-down on glutathione-sepharose beads, anti-FLAG Western blot. (In general: Immunoblotting shows a protein as a band on a membrane.)

Results are given in words; binding and its absence hold for the method and conditions named. Binding seen in cells or lysates may run through a third protein. Some binding calls cover weakened binding; strength is not graded here.

Turning to “glutathione S-transferase (GST)-PHB2 fusion protein (from UniProt O35129 1-299)”, the binding result in experiment [1] and in experiment [2] was “binds” each time.
